Data as given in PMC7819943, “Rice protein-binding microarrays: a tool to detect cis-acting elements near promoter regions in rice”.
This is one part of the list.

Target: T1, OsSMF1 (Oryza sativa, UniProt Q6ZLB0 1-436)
T1 sequence: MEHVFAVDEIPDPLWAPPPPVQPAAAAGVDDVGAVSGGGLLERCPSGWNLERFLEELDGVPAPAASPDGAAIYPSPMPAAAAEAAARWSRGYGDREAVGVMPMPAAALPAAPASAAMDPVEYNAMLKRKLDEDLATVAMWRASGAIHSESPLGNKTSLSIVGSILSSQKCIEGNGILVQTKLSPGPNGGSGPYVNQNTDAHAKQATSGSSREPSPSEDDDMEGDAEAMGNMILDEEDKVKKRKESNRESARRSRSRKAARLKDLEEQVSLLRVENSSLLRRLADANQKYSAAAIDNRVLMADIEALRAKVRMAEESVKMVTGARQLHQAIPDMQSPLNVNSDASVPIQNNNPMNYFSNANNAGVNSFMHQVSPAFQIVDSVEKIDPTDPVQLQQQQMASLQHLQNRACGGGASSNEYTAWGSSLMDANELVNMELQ
Assay: protein-binding microarray (RPBM); PBS, 2% BSA, 51.3 ng/ul salmon testes DNA, 50 uM zinc acetate, 200 nM TF, 25 C, 1 h; high values mean tight binding
Details: protein: recombinant; tags: N-terminal polyhistidine and DsRed monomer fusion (pET32a); chain copies: 2; label: CyDye5-dUTP incorporated in the synthesized complementary strand; 3' TTTTT single-stranded linker to array surface; dsDNA, one strand shown
How it was run: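 The binding signal is fluorescence intensity per feature, in arbitrary units, read on an Axon 4000B scanner. Polyhistidine- and DsRed-tagged transcription factors (N-terminal fusions) from E. coli BL21-CodonPlus were purified on Ni–NTA and applied at 200 nM for 1 h at 25 °C to a double-stranded, BSA-blocked custom Agilent array in buffer with 50 µM zinc acetate.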

Question: How did the binding signal turn out when “AGAATAGGTGGGTGGCAGAGTCACTGCCACCACCACTATTCGGAGTCACCTAGTGCAG” was run?
Answer: 4920 fluorescence intensity (a.u.)

Question: For “TGCTACATAAGTGACACGTCAACACCACGTTGTATAAAGACGGAGTCACCTAGTGCAG”, which binding signal is on record?
Answer: 53700 fluorescence intensity (a.u.)

Question: With “ATGCATTCTACGATGCAAAGGTCCACGCACACGTCAGAACCGGAGTCACCTAGTGCAG” as the sequence, how does the binding signal read?
Answer: 11700 fluorescence intensity (a.u.)

Question: Which binding signal does the source give for “TAATTGAACTAGCAGCAAACTGTGGCTGACGCTGACCTGCCGGAGTCACCTAGTGCAG” here?
Answer: 5580 fluorescence intensity (a.u.)

Question: How did the binding signal turn out when “TGTGTTCAACTATTGCACTACCTCCCTCCTAGTTCGAATCCGGAGTCACCTAGTGCAG” was run?
Answer: 8920 fluorescence intensity (a.u.)

Question: “GGCGGCGATGGCGGCCGTGCTGACGGACGATTTCCTGCTCCGGAGTCACCTAGTGCAG” was tested. Which binding signal did it give?
Answer: 3220 fluorescence intensity (a.u.)

Question: For “AAGCCGTCTACCACTCACTTGGCCTCCATCGCTCTCTGCTCGGAGTCACCTAGTGCAG”, which binding signal is on record?
Answer: 28300 fluorescence intensity (a.u.)

Question: Which binding signal does the source give for “CTCCCTAGCGGCTATGGCCACGCCTCGAGCACCTGATCGACGGAGTCACCTAGTGCAG” here?
Answer: 3780 fluorescence intensity (a.u.)

Question: For “GATGTTGGCCATCCGGCTGGTGACGTTCACCGTCTCGTCGCGGAGTCACCTAGTGCAG”, which binding signal is on record?
Answer: 6450 fluorescence intensity (a.u.)

Question: Which binding signal does the source give for “GATAGTAGTAGTCCACCGTACATAATTATTCTCACACCATCGGAGTCACCTAGTGCAG” here?
Answer: 26900 fluorescence intensity (a.u.)

Question: For “CATGACTGAAGTGTGACGTGACAAAGCGAAGCAATCAACCCGGAGTCACCTAGTGCAG”, which binding signal is on record?
Answer: 6000 fluorescence intensity (a.u.)

Question: Which binding signal does the source give for “ATGCCCATAGAAAATAAAATATATTATTTGTCTCTATCTCCGGAGTCACCTAGTGCAG” here?
Answer: 27900 fluorescence intensity (a.u.)

Question: How did the binding signal turn out when “GCCTAACTGAGTTGGAGAAGGCACAGTCAAGTGTTAAGGACGGAGTCACCTAGTGCAG” was run?
Answer: 3150 fluorescence intensity (a.u.)

Question: With “ACTGACGGAGTGGAAGCCTCGCTTCATGATTTTCTAAGGGCGGAGTCACCTAGTGCAG” as the sequence, how does the binding signal read?
Answer: 3140 fluorescence intensity (a.u.)

Question: How did the binding signal turn out when “GAGGGCTGCCGCCGTTGCCAGCAGAGCTGGCAGGGAGCACCGGAGTCACCTAGTGCAG” was run?
Answer: 19300 fluorescence intensity (a.u.)

Question: “GGTATTACTGACTGGATTACCATGTGTGCGTCACATCGGACGGAGTCACCTAGTGCAG” was tested. Which binding signal did it give?
Answer: 8530 fluorescence intensity (a.u.)

Question: Which binding signal does the source give for “GCCCAGAGGCATATGCGTGCGTGGCACCGCGCGGCACTCCCGGAGTCACCTAGTGCAG” here?
Answer: 18200 fluorescence intensity (a.u.)

Question: For “CAGATGCAGTACTCTACTCTCTCTTCTCCACTGCTCTCCCCGGAGTCACCTAGTGCAG”, which binding signal is on record?
Answer: 3260 fluorescence intensity (a.u.)

Question: How did the binding signal turn out when “ATTAATCATGCGCTGATGACTCACCTCGTTTTGCGTATTTCGGAGTCACCTAGTGCAG” was run?
Answer: 15900 fluorescence intensity (a.u.)

Question: How did the binding signal turn out when “CGAGACCACGACCAGTGGAAGCATCACTGCCTCACTGGCTCGGAGTCACCTAGTGCAG” was run?
Answer: 6430 fluorescence intensity (a.u.)

Question: With “CTTACCGCCTTCCACGCGCGGTCGTCATCGTTGCGAGCCGCGGAGTCACCTAGTGCAG” as the sequence, how does the binding signal read?
Answer: 5900 fluorescence intensity (a.u.)

Question: Which binding signal does the source give for “CGCTATTTCGATGCCGTTGTCACAATGTCCTGGTTAGTCACGGAGTCACCTAGTGCAG” here?
Answer: 23700 fluorescence intensity (a.u.)

Question: For “CTATCGGCTTGAAACCGCCGCACCGTGCACTTGCCGCCAGCGGAGTCACCTAGTGCAG”, which binding signal is on record?
Answer: 37300 fluorescence intensity (a.u.)

Question: Which binding signal does the source give for “GGCTCATCTCTCCCATCCTGGCTTAGTTTGATCTGGTTGACGGAGTCACCTAGTGCAG” here?
Answer: 3380 fluorescence intensity (a.u.)

Question: How did the binding signal turn out when “GAAACGACGCTGACGAGTTTCACCAGGATGAAACTCTTTCCGGAGTCACCTAGTGCAG” was run?
Answer: 3800 fluorescence intensity (a.u.)

Question: For “GTATGTCAAGTATGTGTGGGCGTCATGCACGCATGCGTGCCGGAGTCACCTAGTGCAG”, which binding signal is on record?
Answer: 5150 fluorescence intensity (a.u.)

Question: How did the binding signal turn out when “TATCTATGTCATCCGCAGCCGCAGGCTGACGCGAGAGGAGCGGAGTCACCTAGTGCAG” was run?
Answer: 4040 fluorescence intensity (a.u.)

Question: With “ACGCCCTACACCGCACACTCTTCTGCACGCATAGTAGCTGCGGAGTCACCTAGTGCAG” as the sequence, how does the binding signal read?
Answer: 3440 fluorescence intensity (a.u.)

Question: How did the binding signal turn out when “CTGGAACTAAAGTTGTGCCAAACAGACCTTAAATTTAGGACGGAGTCACCTAGTGCAG” was run?
Answer: 20800 fluorescence intensity (a.u.)

Question: For “ATGTCAGCCTCCCTCAACCGACACAGTCAGCCACACCGCTCGGAGTCACCTAGTGCAG”, which binding signal is on record?
Answer: 5310 fluorescence intensity (a.u.)

Question: With “CAAAATCACAGAAATTTTGACACGTGGCATATAATGCCAGCGGAGTCACCTAGTGCAG” as the sequence, how does the binding signal read?
Answer: 21000 fluorescence intensity (a.u.)

Question: Which binding signal does the source give for “ACCAGCTCTGTCCCTGACAGTACAGTCATATAATTCCCTCCGGAGTCACCTAGTGCAG” here?
Answer: 5950 fluorescence intensity (a.u.)

Question: “GAAGACACGTTTATTTCGGATATGTATTTCCTACTAATACCGGAGTCACCTAGTGCAG” was tested. Which binding signal did it give?
Answer: 3140 fluorescence intensity (a.u.)

Question: “GCCGCCGCTGTCGCCATCCACGCTCCGAGCGCCACTGCCACGGAGTCACCTAGTGCAG” was tested. Which binding signal did it give?
Answer: 3490 fluorescence intensity (a.u.)

Question: Which binding signal does the source give for “TATTCTCGCCGTTGTTGCGTGCCACGCCTCCCCTCCTTCCCGGAGTCACCTAGTGCAG” here?
Answer: 3900 fluorescence intensity (a.u.)

Question: How did the binding signal turn out when “ATGCAATCAACAAACTGTCATCATCTCCAAATTTGCTTCACGGAGTCACCTAGTGCAG” was run?
Answer: 3240 fluorescence intensity (a.u.)

Question: With “TTGTTAAATATACTTTCATGTACACGTATAGTTTTACATACGGAGTCACCTAGTGCAG” as the sequence, how does the binding signal read?
Answer: 3590 fluorescence intensity (a.u.)

Question: “AGGATAAAGGGCTTTTGTGAAAATAAAATTCTACCCGGGGCGGAGTCACCTAGTGCAG” was tested. Which binding signal did it give?
Answer: 3550 fluorescence intensity (a.u.)

Question: Which binding signal does the source give for “GCCATCACCACCACCACCACCACCTCACCGCCGCCTCGCACGGAGTCACCTAGTGCAG” here?
Answer: 4150 fluorescence intensity (a.u.)

Question: “TGATCACAGTAAGGACAGGTAGAGAGTCAGCAGTGCTTCTCGGAGTCACCTAGTGCAG” was tested. Which binding signal did it give?
Answer: 3380 fluorescence intensity (a.u.)

Question: How did the binding signal turn out when “TCCAACGGCATCCCGCAACCCACGTGTCCCTCACCGCGCGCGGAGTCACCTAGTGCAG” was run?
Answer: 6630 fluorescence intensity (a.u.)

Question: With “GGGTGTGTGGTGTATAAATCGCCAGCCTGTAGGCATGTGACGGAGTCACCTAGTGCAG” as the sequence, how does the binding signal read?
Answer: 3730 fluorescence intensity (a.u.)
